US11649236B2, “Polycyclic carbamoylpyridone derivative” (Shionogi & Co., Ltd., priority 2018, dated 2023)
Some results were stated once for a whole list of compounds, not compound by compound.

By UniProt entry, the sequences of proteins in these tests, tags left out.
UniProt P08684, whole entry: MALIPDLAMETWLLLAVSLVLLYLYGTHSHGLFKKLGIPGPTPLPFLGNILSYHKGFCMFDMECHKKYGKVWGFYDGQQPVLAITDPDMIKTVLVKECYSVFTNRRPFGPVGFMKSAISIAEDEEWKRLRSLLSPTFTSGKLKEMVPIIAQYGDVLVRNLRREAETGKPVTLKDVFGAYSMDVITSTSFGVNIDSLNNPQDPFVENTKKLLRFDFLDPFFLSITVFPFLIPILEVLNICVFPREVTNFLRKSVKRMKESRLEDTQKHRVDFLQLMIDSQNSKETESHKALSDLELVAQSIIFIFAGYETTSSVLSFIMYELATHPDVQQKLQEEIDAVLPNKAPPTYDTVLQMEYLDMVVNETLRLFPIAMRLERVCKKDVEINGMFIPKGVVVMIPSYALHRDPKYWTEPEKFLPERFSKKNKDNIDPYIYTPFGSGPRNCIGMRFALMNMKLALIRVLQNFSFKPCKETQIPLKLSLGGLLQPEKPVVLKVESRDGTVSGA

Target: T1, CYP3A4 (Homo sapiens, UniProt P08684)
T1 construct: from tissue; host or cells: pooled human liver microsomes
Assay: CYP3A4 (MDZ) MBI test
Type: in vitro ADME
Conditions: IC of Preincubation 0 min/IC of Preincubation 30 min; pooled human liver microsomes, midazolam 1-hydroxylation

Structure (SMILES) | Shifted IC grade (MBI)
CN1C(=O)c2c(O)c(=O)c(C(=O)NCc3ccc(F)cc3F)cn2N2CCCC[C@@H]12 [Compound I-015] | − (shifted IC of 1.0 or less is graded as negative (−))
CN1C(=O)c2c(O)c(=O)c(C(=O)NCc3cccc(Cl)c3F)cn2N2C[C@@H]3CC[C@@H](O3)[C@@H]12 [II-066] | − (shifted IC of 1.0 or less is graded as negative (−))
